# Source: paper PMC5072635 (PLoS ONE, 2016)
# Test system: HSA
# Method: All samples were degassed, and ITC was performed at room temperature as previously described using MicroCal VP-ITC calorimeter. […] The data were analyzed using a single-site binding model provided in the ITC analysis software package. […] The values for ΔH, Kd and stoichiometry averaged ± standard deviation. […] The values for stoichiometry and binding affinity were derived from the ITC experiments.
# While the presence of other ligands would increase the proportion of free floating GML unbound to albumin, we assumed there were no other albumin ligands present in the system to simplify our calculations.
# (PDF) Click here for additional data file.
smiles,measurement,setting,value
"CCCCCCCCCCCC(=O)OCC(O)CO (centres unmarked) [GML, Glycerol monolaurate]",HSA bound to GML,"0.2% HSA, 10 μg/ml GML",38%
same,HSA bound to GML,"0.2% HSA, 20 μg/ml GML",75%
same,HSA bound to GML,"1% HSA, 10 μg/ml GML",7.9%
same,HSA bound to GML,"1% HSA, 20 μg/ml GML",15.9%
same,HSA bound to GML,"2% HSA, 10 and 20 μg/ml GML",< 10%

# Where two headings read alike, the source gives them in different places.
